PMC6385813, “Macrocyclisation of small peptides enabled by oxetane incorporation” (Chemical Science, 2019)

Test: solution-state NMR NOE conformational study
Format: physicochemical
Details: d6-DMSO, 30 mM, 298 K, 700 MHz; mixing times 250–800 ms; between Gly3 and Tyr5

H-LAGAY-OMe [LAGAY-OMe]
medium-range NOEs (turn formation): only observed in peptide LAGOxAY-OMe

LAGOxAY-OMe [oxetane modified variant of LAGAY methyl ester]
medium-range NOEs (turn formation): clearly observed
